PubChem BioAssay AID504774 – Drosophila RNAi Screening Center – 2011
Purpose: 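Genes required for cells to withstand methyl methanesulphonate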 (primary screen). Cells: Drosophila Kc167 cells. Reagents: long dsRNA against Drosophila genes, about 0.25 µg dsRNA per well. Duration: about 6 days: 3 days knock-down, then 3 days with or without MMS. Treatment: methyl methanesulphonate 0.004% (w/v) for 3 days after knock-down. Measurement: 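ATP-dependent luminescence as a measure of live cells in MMS-exposed wells, quantile normalised within each plate, with replicate values also given as a mean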. Scale: mean viability with MMS and viability with MMS: higher = more surviving cells after MMS.
The deposit covers about 23,000 reagents; this is an unselected part of those that have a named target and a result. 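Values are quantile-normalised luminescence on an arbitrary scale; higher means more cells surviving MMS.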 Names joined by + are all predicted targets of the reagent.

target | dsRNA | mean viability with MMS | viability with MMS, replicate 1 | viability with MMS, replicate 2
CG18659 | DRSC06784 | 3.57e6 | 4.06e6 | 4.02e6
CG32640 + CG32641 | DRSC22885 | 3.42e6 | 3.95e6 | 3.88e6
CG7016 | DRSC16174 | 3.37e6 | 3.84e6 | 3.73e6
RpL6 (Ribosomal protein L6) | DRSC14323 | 3.14e6 | 3.66e6 | 3.73e6
RpL6 (Ribosomal protein L6) | DRSC22384 | 2.69e6 | 3.70e6 | 3.71e6
nonC (no-on-and-no-off transient C) | DRSC18366 | 3.54e6 | 4.05e6 | 4.09e6
nonC (no-on-and-no-off transient C) | DRSC18367 | 3.47e6 | 3.91e6 | 3.98e6
CG3819 | DRSC10378 | 3.32e6 | 3.75e6 | 3.73e6
Hr78 (Hormone-receptor-like in 78) | DRSC11866 | 3.54e6 | 3.92e6 | 4.10e6
Nxt1 (NTF2-related export protein 1) | DRSC04630 | 3.29e6 | 3.62e6 | 3.70e6
CG9154 | DRSC03150 | 3.73e6 | 4.30e6 | 4.19e6
Wdr37 (WD repeat domain 37) | DRSC14500 | 3.49e6 | 4.03e6 | 3.88e6
CG7328 | DRSC10812 | 3.50e6 | 3.97e6 | 3.95e6
Pld (Phospholipase D) | DRSC04854 | 3.66e6 | 4.16e6 | 3.99e6
Aef1 (Adult enhancer factor 1) | DRSC11605 | 3.66e6 | 4.12e6 | 4.12e6
PIG-X (Phosphatidylinositol glycan anchor biosynthesis class X) | DRSC22721 | 3.72e6 | 4.25e6 | 4.05e6
spin (spinster) | DRSC07176 | 3.65e6 | 4.06e6 | 4.23e6
spin (spinster) | DRSC22271 | 3.60e6 | 4.02e6 | 4.11e6
Pgd (Phosphogluconate dehydrogenase) | DRSC18697 | 3.52e6 | 4.09e6 | 3.91e6
Or82a (Odorant receptor 82a) | DRSC11996 | 3.55e6 | 4.10e6 | 3.95e6
CG11382 | DRSC18624 | 3.53e6 | 4.01e6 | 4.01e6
CG12546 | DRSC11676 | 3.36e6 | 3.77e6 | 3.80e6
CG8509 | DRSC20109 | 3.48e6 | 4.26e6 | 3.65e6
CG15599 | DRSC19668 | 3.57e6 | 4.09e6 | 4.00e6
cv-2 (crossveinless 2) | DRSC03861 | 3.64e6 | 4.09e6 | 4.14e6
cv-2 (crossveinless 2) | DRSC04261 | 3.60e6 | 4.18e6 | 3.99e6
CG14205 | DRSC19560 | 3.61e6 | 4.04e6 | 4.11e6
CR42548 (pseudo) | DRSC09514 | 3.55e6 | 3.97e6 | 4.09e6
beat-Vc (beaten path Vc) | DRSC12927 | 3.37e6 | 3.79e6 | 3.83e6
beat-Vc (beaten path Vc) | DRSC14849 | 3.38e6 | 3.93e6 | 3.79e6
Gyg (Glycogenin) | DRSC03850 | 3.21e6 | 3.73e6 | 3.71e6
Gyg (Glycogenin) | DRSC04556 | 3.53e6 | 4.13e6 | 3.88e6
Usp5 (Ubiquitin specific protease 5) | DRSC08244 | 3.52e6 | 3.98e6 | 4.00e6
Elp6 (Elongator complex protein 6) | DRSC16571 | 3.31e6 | 3.76e6 | 3.74e6
CG32055 | DRSC10666 | 3.78e6 | 4.33e6 | 4.26e6
CG16723 | DRSC15138 | 3.46e6 | 3.98e6 | 3.84e6
meso18E | DRSC20351 | 3.53e6 | 3.98e6 | 4.03e6
tn (thin) | DRSC05768 | 3.47e6 | 4.01e6 | 3.88e6
tn (thin) | DRSC06532 | 3.58e6 | 4.25e6 | 3.86e6
CG18302 | DRSC02663 | 3.42e6 | 3.81e6 | 3.91e6
CG13474 | DRSC10018 | 3.38e6 | 3.88e6 | 3.73e6
Cyp6a9 (Cytochrome P450 6a9) | DRSC07385 | 3.97e6 | 4.06e6 | 4.46e6
Rpn1 (Regulatory particle non-ATPase 1) | DRSC11274 | 2.92e6 | 3.59e6 | 3.56e6
galectin | DRSC00305 | 3.54e6 | 4.06e6 | 3.98e6
CG34260 + cmpy | DRSC11701 | 3.47e6 | 3.83e6 | 4.03e6
CG18539 | DRSC06766 | 3.68e6 | 4.10e6 | 4.20e6
Cyp6t1 (Cytochrome P450 6t1) | DRSC20564 | 3.74e6 | 4.22e6 | 4.15e6
S-Lap4 (Sperm-Leucylaminopeptidase 4) | DRSC10957 | 3.46e6 | 4.11e6 | 3.73e6
CG2113 | DRSC08554 | 3.54e6 | 4.03e6 | 3.99e6
ATPsynF (ATP synthase, subunit F) | DRSC04482 | 3.70e6 | 4.17e6 | 4.34e6
Cpr30B (Cuticular protein 30B) | DRSC02728 | 3.58e6 | 4.11e6 | 4.02e6
Clic (Chloride intracellular channel) | DRSC19364 | 3.38e6 | 4.13e6 | 3.84e6
CG43317 | DRSC15000 | 3.65e6 | 4.10e6 | 4.20e6
CG3546 | DRSC18308 | 3.38e6 | 3.87e6 | 3.78e6
cold (coiled) | DRSC00538 | 3.63e6 | 4.29e6 | 3.97e6
HLH4C (Helix loop helix protein 4C) | DRSC18670 | 3.70e6 | 4.19e6 | 4.20e6
HLH4C (Helix loop helix protein 4C) | DRSC21322 | 3.59e6 | 3.89e6 | 4.26e6
thw (thawb) | DRSC12552 | 3.54e6 | 4.06e6 | 3.97e6
atk (artichoke) | DRSC11418 | 3.40e6 | 3.85e6 | 3.93e6
atk (artichoke) | DRSC11769 | 3.47e6 | 3.96e6 | 3.88e6
CG14456 | DRSC11713 | 3.41e6 | 3.75e6 | 3.94e6
Tsc1 | DRSC16890 | 4.03e6 | 4.49e6 | 4.32e6
wds (will die slowly) | DRSC18852 | 3.82e6 | 4.37e6 | 4.26e6
CG11899 | DRSC16656 | 3.48e6 | 3.95e6 | 3.90e6
eyg (eyegone) | DRSC11344 | 2.82e6 | 3.43e6 | 3.42e6
eyg (eyegone) | DRSC23136 | 3.54e6 | 3.99e6 | 4.08e6
CG10077 | DRSC09691 | 3.52e6 | 3.96e6 | 4.02e6
CG14102 | DRSC10103 | 3.59e6 | 4.11e6 | 4.03e6

10 entries from above in another layout.
{"target":"HLH4C (Helix loop helix protein 4C)","dsRNA":"DRSC21322","mean viability with MMS":3.59e6,"viability with MMS, replicate 1":3.89e6,"viability with MMS, replicate 2":4.26e6}
{"target":"thw (thawb)","dsRNA":"DRSC12552","mean viability with MMS":3.54e6,"viability with MMS, replicate 1":4.06e6,"viability with MMS, replicate 2":3.97e6}
{"target":"atk (artichoke)","dsRNA":"DRSC11418","mean viability with MMS":3.40e6,"viability with MMS, replicate 1":3.85e6,"viability with MMS, replicate 2":3.93e6}
{"target":"atk (artichoke)","dsRNA":"DRSC11769","mean viability with MMS":3.47e6,"viability with MMS, replicate 1":3.96e6,"viability with MMS, replicate 2":3.88e6}
{"target":"CG14456","dsRNA":"DRSC11713","mean viability with MMS":3.41e6,"viability with MMS, replicate 1":3.75e6,"viability with MMS, replicate 2":3.94e6}
{"target":"Tsc1","dsRNA":"DRSC16890","mean viability with MMS":4.03e6,"viability with MMS, replicate 1":4.49e6,"viability with MMS, replicate 2":4.32e6}
{"target":"wds (will die slowly)","dsRNA":"DRSC18852","mean viability with MMS":3.82e6,"viability with MMS, replicate 1":4.37e6,"viability with MMS, replicate 2":4.26e6}
{"target":"CG11899","dsRNA":"DRSC16656","mean viability with MMS":3.48e6,"viability with MMS, replicate 1":3.95e6,"viability with MMS, replicate 2":3.90e6}
{"target":"eyg (eyegone)","dsRNA":"DRSC11344","mean viability with MMS":2.82e6,"viability with MMS, replicate 1":3.43e6,"viability with MMS, replicate 2":3.42e6}
{"target":"eyg (eyegone)","dsRNA":"DRSC23136","mean viability with MMS":3.54e6,"viability with MMS, replicate 1":3.99e6,"viability with MMS, replicate 2":4.08e6}
